Data published in PMC4449002.
Results are given in words; binding and its absence hold for the method and conditions named. Binding seen in cells or lysates may run through a third protein. Some entries that bind do so weakly or less than the wild type.

The chains behind the UniProt entries cited, without tags or fusion partners. Where a name states a change or a piece, a line headed by the entry shows the natural chain unless it says otherwise.
UniProt P12978: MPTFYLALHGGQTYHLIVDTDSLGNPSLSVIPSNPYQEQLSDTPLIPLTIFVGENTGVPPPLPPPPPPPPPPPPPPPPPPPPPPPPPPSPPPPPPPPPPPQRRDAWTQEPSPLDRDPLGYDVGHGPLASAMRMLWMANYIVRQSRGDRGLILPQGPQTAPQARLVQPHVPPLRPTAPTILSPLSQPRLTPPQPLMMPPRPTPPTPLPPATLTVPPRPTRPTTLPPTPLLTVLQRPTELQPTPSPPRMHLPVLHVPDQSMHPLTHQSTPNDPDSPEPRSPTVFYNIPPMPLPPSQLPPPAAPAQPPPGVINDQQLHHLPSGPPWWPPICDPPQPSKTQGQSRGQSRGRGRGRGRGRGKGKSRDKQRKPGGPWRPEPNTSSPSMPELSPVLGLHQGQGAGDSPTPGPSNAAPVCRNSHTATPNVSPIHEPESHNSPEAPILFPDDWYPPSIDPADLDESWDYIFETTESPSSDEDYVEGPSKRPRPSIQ
UniProt Q06330: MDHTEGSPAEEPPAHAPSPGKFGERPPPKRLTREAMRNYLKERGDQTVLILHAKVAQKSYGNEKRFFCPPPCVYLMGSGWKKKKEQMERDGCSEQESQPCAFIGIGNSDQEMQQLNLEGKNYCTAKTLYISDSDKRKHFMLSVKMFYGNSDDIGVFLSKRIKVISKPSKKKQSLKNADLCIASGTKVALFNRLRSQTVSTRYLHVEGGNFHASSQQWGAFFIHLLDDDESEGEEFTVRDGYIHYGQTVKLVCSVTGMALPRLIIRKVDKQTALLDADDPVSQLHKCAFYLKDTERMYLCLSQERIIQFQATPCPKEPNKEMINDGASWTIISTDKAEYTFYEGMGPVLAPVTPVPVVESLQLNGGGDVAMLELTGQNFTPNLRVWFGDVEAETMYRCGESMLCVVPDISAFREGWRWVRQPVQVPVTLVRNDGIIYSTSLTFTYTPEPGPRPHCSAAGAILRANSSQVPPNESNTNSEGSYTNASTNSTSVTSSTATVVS

Target: HA-tagged full-length EBNA-2, wild-type (Epstein-Barr virus, strain B95-8 (type 1)) (UniProt P12978)
Assay: co-IP; HA-tagged EBNA-2 or mutants co-expressed with FLAG-tagged F199 in EBV negative DG75 B cells; lysis in 1% NP-40 buffer (10 mM TRIS pH 7.4, 1 mM EDTA, 150 mM NaCl, 3% glycerol); IP with HA-specific antibodies; blots with EBNA-2, FLAG and CBF1/CSL specific antibodies

Row | Substance | binding
1 | CBF1/CSL (endogenous) (from UniProt Q06330 1-500) | binds
2 | FLAG-tagged EBNA-2 fragment encompassing amino acid 1–199 (from UniProt P12978 1-199) (domain or fragment) | binds
